Test results taken from publication PMC9750974.
These are yes or no findings as the source states them, for the method shown. In cells and extracts the contact can be indirect. Some binding calls cover weakened binding; strength is not graded here.

By UniProt entry, the sequences of proteins in these tests, tags left out. Residues count along the entry.
UniProt Q00609, residues 38-306: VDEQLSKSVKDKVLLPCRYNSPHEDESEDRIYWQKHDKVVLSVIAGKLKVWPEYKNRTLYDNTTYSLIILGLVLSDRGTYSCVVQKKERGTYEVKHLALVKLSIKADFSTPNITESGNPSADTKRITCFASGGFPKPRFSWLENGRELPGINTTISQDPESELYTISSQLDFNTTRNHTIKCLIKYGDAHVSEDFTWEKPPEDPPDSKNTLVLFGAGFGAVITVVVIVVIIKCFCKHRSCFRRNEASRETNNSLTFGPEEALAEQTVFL
UniProt Q91VN0, residues 31-1614: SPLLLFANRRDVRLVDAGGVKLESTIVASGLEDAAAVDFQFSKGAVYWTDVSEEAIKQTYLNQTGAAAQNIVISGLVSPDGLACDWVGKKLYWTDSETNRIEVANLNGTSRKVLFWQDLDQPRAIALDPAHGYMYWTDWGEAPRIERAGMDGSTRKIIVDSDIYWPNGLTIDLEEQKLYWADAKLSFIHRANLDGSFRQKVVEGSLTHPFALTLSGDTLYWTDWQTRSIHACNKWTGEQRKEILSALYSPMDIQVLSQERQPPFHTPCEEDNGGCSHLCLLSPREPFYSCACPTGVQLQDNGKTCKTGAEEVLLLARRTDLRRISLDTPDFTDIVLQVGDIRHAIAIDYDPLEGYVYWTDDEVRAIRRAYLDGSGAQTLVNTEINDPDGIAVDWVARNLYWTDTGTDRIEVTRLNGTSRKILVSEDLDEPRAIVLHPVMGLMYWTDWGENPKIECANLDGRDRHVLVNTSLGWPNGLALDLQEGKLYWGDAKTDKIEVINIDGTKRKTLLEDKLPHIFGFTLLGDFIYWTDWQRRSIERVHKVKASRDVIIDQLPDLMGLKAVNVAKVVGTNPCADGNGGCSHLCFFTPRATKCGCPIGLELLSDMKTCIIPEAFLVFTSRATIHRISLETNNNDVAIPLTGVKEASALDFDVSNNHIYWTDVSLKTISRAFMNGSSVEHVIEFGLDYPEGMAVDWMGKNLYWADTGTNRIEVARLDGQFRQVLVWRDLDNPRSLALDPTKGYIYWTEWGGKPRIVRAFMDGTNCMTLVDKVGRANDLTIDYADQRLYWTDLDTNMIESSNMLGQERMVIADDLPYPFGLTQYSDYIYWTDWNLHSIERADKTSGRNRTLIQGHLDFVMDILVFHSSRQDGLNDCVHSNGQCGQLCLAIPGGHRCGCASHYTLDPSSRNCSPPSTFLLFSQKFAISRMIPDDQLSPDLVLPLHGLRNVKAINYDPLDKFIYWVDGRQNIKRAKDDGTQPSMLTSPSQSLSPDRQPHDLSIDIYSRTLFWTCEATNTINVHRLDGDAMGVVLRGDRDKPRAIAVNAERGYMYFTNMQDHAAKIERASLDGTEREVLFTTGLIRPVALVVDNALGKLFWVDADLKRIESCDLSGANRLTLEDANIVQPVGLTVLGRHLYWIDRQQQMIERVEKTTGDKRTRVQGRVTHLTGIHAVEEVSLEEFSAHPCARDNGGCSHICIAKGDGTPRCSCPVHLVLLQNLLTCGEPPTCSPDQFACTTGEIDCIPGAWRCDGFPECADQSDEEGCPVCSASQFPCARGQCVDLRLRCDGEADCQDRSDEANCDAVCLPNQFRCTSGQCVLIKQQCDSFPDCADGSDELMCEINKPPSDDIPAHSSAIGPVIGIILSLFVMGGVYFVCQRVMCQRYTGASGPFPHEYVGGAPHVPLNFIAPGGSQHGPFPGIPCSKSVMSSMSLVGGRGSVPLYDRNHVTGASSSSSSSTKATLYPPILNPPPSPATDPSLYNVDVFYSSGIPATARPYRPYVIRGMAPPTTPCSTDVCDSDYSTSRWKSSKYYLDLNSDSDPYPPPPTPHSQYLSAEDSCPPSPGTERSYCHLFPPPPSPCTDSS

Legend:
[1] = target: heat shock protein 90 alpha, class B member 1 (Hsp90ab1), endogenous (mouse (endogenous in MPC5 cells and mouse kidney)) (UniProt P11499); test: co-IP; kidney tissue lysates of 6-month-old WT or podocyte-specific B7-1 Tg mice; immunoprecipitated with antibody against B7-1, Hsp90ab1 or rabbit IgG; blotted for B7-1, Hsp90ab1 or LRP5
[2] = target: B7-1-3xFlag, podocyte-specific transgene (NPHS2 promoter) in B7-1 transgenic (Tg) mice (UniProt Q00609); test: as above
[3] = target: heat shock protein 90 alpha, class B member 1 (Hsp90ab1), endogenous (mouse (endogenous in MPC5 cells and mouse kidney)) (UniProt P11499); test: co-IP; MPC5 cells transfected with B7-1 expression plasmid for 24 h; lysates immunoprecipitated overnight at 4 °C with antibody against B7-1, Hsp90ab1 or rabbit IgG and protein A/G plus agarose; blotted for B7-1, Hsp90ab1 or LRP5
[4] = target: B7-1 (Flag-tagged, from the plasmid pFlag-B7-1), overexpressed in MPC5 mouse podocytes (UniProt Q00609); test: as above
[5] = target: HA tagged Hsp90ab1 with R168 mutated to alanine (▴3) (UniProt P11499); test: co-IP; 293 T cells co-transfected with Flag tagged B7-1 and HA tagged Hsp90ab1 (wild type or point mutants) for 24 hours; whole cell lysates immunoprecipitated with HA-tag antibody, blotted with B7-1 or HA antibody
[6] = target: HA tagged Hsp90ab1 wildtype (Full) (UniProt P11499); test: as above
[7] = target: HA tagged Hsp90ab1 with L65 mutated to alanine (▴1) (UniProt P11499); test: as above
[8] = target: HA tagged Hsp90ab1 with D170 mutated to alanine (▴4) (UniProt P11499); test: as above

Measured: binding

LRP5, endogenous (from UniProt Q91VN0 31-1614) (receptor)
binds: [1] | [2] | [3] | [4]

B7-1 (Flag tagged), expressed in 293 T cells (from UniProt Q00609 38-306)
binds: [5] | [6] | [7] | [8]
